Results deposited as PubChem BioAssay AID743121 (NCATS, 2013).
Here is one part, drawn at random, of about 26,000 deposited reagents. Of all reagents, 167 (0.63%) got an active call. 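Calls are per gene from RSA p-values that are not deposited; an individual active-marked siRNA can sensitise only weakly.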 The numbers tell different reagents against one gene apart. Further read-outs or replicates are left out here.

Assay: 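Genes whose silencing strengthens cell killing by camptothecin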 (primary screen)
Cells: MDA-MB-231 cells, a human breast cancer line
Reagent: single siRNA against human genes, 20 nM siRNA (0.8 pmol per well)
Duration: 120 h (drug added 48 h after transfection, read 72 h later)
Challenge: camptothecin 20 nM (about EC30) for 72 h; vehicle 0.1% DMSO in parallel plates
Detection: 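Cell viability by ATP luminescence (CellTiter-Glo) as % of non-targeting siRNA wells, and the log2 ratio of viability without drug over viability with camptothecin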
Reading the numbers: log2 vehicle/camptothecin viability: higher = stronger sensitisation to camptothecin
Rule for the call: 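Each gene scored by redundant siRNA activity (RSA) over its individual siRNA ratios; a gene is called active at p < 0.001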

log2 vehicle/camptothecin viability, by gene symbol and reagent
SNX17: #1 -0.493 inactive; #2 -0.37 inactive; #3 -0.0101 inactive; #4 0.105 inactive
A4GALT: #1 -0.604 inactive; #2 -0.345 inactive; #3 -0.276 inactive; #4 -0.259 inactive
F3: #1 -0.0662 inactive; #2 -0.365 inactive; #3 0.0493 inactive; #4 -0.00836 inactive
CTRB1: #1 -0.0491 inactive; #2 -0.0829 inactive; #3 -0.0375 inactive; #4 -0.072 inactive
FFAR4: #1 -0.087 inactive; #2 -0.156 inactive; #3 0.00775 inactive; #4 -0.212 inactive
PSMB6: #1 -0.544 inactive; #2 -0.308 inactive; #3 -0.356 inactive; #4 -0.114 inactive
FKBP9: #1 -0.00149 inactive; #2 -0.0939 inactive; #3 -0.399 inactive; #4 -0.117 inactive

Individual results from the entries so far:
For “log2 vehicle/camptothecin viability”, PSMB6 #4 is entered as -0.114
A4GALT #2, Outcome → inactive
